The target of the assay is GST-tagged pacsin 2 SH3 domain (human) (UniProt Q9UNF0). As to the kind of experiment: pull-down; GST–pacsin 2 SH3 or GST beads (10 µl bed) as bait; 170 µl extract of transfected HEK293T cells; 20 mM Tris-HCl pH 7.5, 150 mM NaCl, 10% glycerol, 5 mM EDTA, 2% Triton X-100; 1 h at 4°C; anti-GFP immunoblot; only the target purified.

Protein sequences, listed by entry. Tags and fused reporters are not part of them. Residues count along the entry.
UniProt Q9UNF0, residues 426-486: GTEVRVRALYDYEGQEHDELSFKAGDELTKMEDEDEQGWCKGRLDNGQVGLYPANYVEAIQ

No constants are given. Whether binding was seen depends on the method and setting. In cells and extracts the contact can be indirect. Binding can be weak; no strength is given.

For “GFP-tagged full-length N-cadherin, wild type (from UniProt P19022-1)”, the binding result is recorded as “binds”.

Values taken from PMC10281519.
